Values from PubChem BioAssay AID1224830 (NIAID, 2016)
Shown is a random part of about 18,000 reagents. About 2,900 of all reagents (16%) count as active. 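Calls are made per well; low scores hint the gene aids the LPS response, high scores that it dampens it.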 Unmarked entries are inactive. Repeated entries: four replicate wells of each siRNA pool. Reagent sequences are not shown.

Test: 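Genes whose knock-down alters the TNF-alpha reporter response to LPS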 (primary screen)
Cell system: human THP-1 monocytic leukaemia cells, TNF dual-luciferase reporter clone, PMA-differentiated to macrophage-like cells
Knock-down reagent: siRNA pool against human genes, 50 nM
Time to read-out: LPS for 4 h, given about 3 days after siRNA transfection
Challenge: bacterial LPS (TLR4 ligand), 10 ng/ml
Detection: 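Ratio of firefly to renilla light, scaled to the plate median and expressed as a robust z-score per replicate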
Reading the numbers: TNF reporter robust z-score: higher = stronger TNF reporter response to LPS
Call rule: 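Each well counts as active if its z-score is over 2.8 or under -1.5; controls are left without a call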

| Target gene | TNF reporter robust z-score |
| --- | --- |
| C9orf163 (chromosome 9 putative open reading frame 163) | 5.29 (active) |
| C9orf163 (chromosome 9 putative open reading frame 163) | 5.6 (active) |
| C9orf163 (chromosome 9 putative open reading frame 163) | 5.45 (active) |
| C9orf163 (chromosome 9 putative open reading frame 163) | 7.4 (active) |
| KAT6B (lysine acetyltransferase 6B) | 0.22 |
| KAT6B (lysine acetyltransferase 6B) | 1.22 |
| KAT6B (lysine acetyltransferase 6B) | 0.73 |
| KAT6B (lysine acetyltransferase 6B) | 0.9 |
| GABRG2 (gamma-aminobutyric acid type A receptor subunit gamma2) | 1.93 |
| GABRG2 (gamma-aminobutyric acid type A receptor subunit gamma2) | 1.88 |
| GABRG2 (gamma-aminobutyric acid type A receptor subunit gamma2) | -0.23 |
| GABRG2 (gamma-aminobutyric acid type A receptor subunit gamma2) | -0.92 |
| DNAJC15 (DnaJ heat shock protein family (Hsp40) member C15) | -0.24 |
| DNAJC15 (DnaJ heat shock protein family (Hsp40) member C15) | -1.1 |
| DNAJC15 (DnaJ heat shock protein family (Hsp40) member C15) | -0.85 |
| DNAJC15 (DnaJ heat shock protein family (Hsp40) member C15) | -0.84 |
| EWSR1 (EWS RNA binding protein 1) | 0.08 |
| EWSR1 (EWS RNA binding protein 1) | 0.66 |
| EWSR1 (EWS RNA binding protein 1) | 0.09 |
| EWSR1 (EWS RNA binding protein 1) | 1.44 |
| ADAP2 (ArfGAP with dual PH domains 2) | 1.04 |
| ADAP2 (ArfGAP with dual PH domains 2) | 1.1 |
| ADAP2 (ArfGAP with dual PH domains 2) | 0.46 |
| ADAP2 (ArfGAP with dual PH domains 2) | 0.7 |
| ERGIC1 (endoplasmic reticulum-golgi intermediate compartment 1) | -0.38 |
| ERGIC1 (endoplasmic reticulum-golgi intermediate compartment 1) | -0.72 |
| ERGIC1 (endoplasmic reticulum-golgi intermediate compartment 1) | -0.33 |
| ERGIC1 (endoplasmic reticulum-golgi intermediate compartment 1) | -1.09 |
| SPACA9 (sperm acrosome associated 9) | 2.6 |
| SPACA9 (sperm acrosome associated 9) | 0.59 |
| SPACA9 (sperm acrosome associated 9) | 2.94 (active) |
| SPACA9 (sperm acrosome associated 9) | 3.08 (active) |
| OR1B1 (olfactory receptor family 1 subfamily B member 1) | 0.44 |
| OR1B1 (olfactory receptor family 1 subfamily B member 1) | 0.97 |
| OR1B1 (olfactory receptor family 1 subfamily B member 1) | 0.81 |
| OR1B1 (olfactory receptor family 1 subfamily B member 1) | 0.5 |
| ADCY7 (adenylate cyclase 7) | 0.88 |
| ADCY7 (adenylate cyclase 7) | 0.34 |
| ADCY7 (adenylate cyclase 7) | 0.17 |
| ADCY7 (adenylate cyclase 7) | 1.01 |
| RTTN (rotatin) | -0.74 |
| RTTN (rotatin) | -0.32 |
| RTTN (rotatin) | -0.21 |
| RTTN (rotatin) | 0.06 |
| HERPUD1 | -0.43 |
| HERPUD1 | 0.4 |
| HERPUD1 | 0.35 |
| HERPUD1 | -0.71 |
| SUSD2 (sushi domain containing 2) | -0.28 |
| SUSD2 (sushi domain containing 2) | -0.95 |
| SUSD2 (sushi domain containing 2) | 0.19 |
| SUSD2 (sushi domain containing 2) | -0.34 |
| CHKA (choline kinase alpha) | 0.41 |
| CHKA (choline kinase alpha) | -0.41 |
| CHKA (choline kinase alpha) | 1.18 |
| CHKA (choline kinase alpha) | -0.43 |
| RPS18 (ribosomal protein S18) | -0.29 |
| RPS18 (ribosomal protein S18) | -0.95 |
| RPS18 (ribosomal protein S18) | -0.59 |
| RPS18 (ribosomal protein S18) | 0.11 |
| VANGL2 (VANGL planar cell polarity protein 2) | -0.29 |
| VANGL2 (VANGL planar cell polarity protein 2) | 0.13 |
| VANGL2 (VANGL planar cell polarity protein 2) | 0 |
| VANGL2 (VANGL planar cell polarity protein 2) | 0.34 |
| MC3R (melanocortin 3 receptor) | -0.17 |
| MC3R (melanocortin 3 receptor) | -0.78 |
| MC3R (melanocortin 3 receptor) | -0.49 |
| MC3R (melanocortin 3 receptor) | 0.6 |
| ACTL6A (actin like 6A) | 0.52 |
| ACTL6A (actin like 6A) | 0.8 |
| ACTL6A (actin like 6A) | -0.41 |
| NOXA1 (NADPH oxidase activator 1) | 0.42 |
| NOXA1 (NADPH oxidase activator 1) | 0.02 |
| NOXA1 (NADPH oxidase activator 1) | -0.05 |
| IL17B (interleukin 17B) | -0.59 |
| IL17B (interleukin 17B) | -0.23 |
| IL17B (interleukin 17B) | -0.24 |
| IL17B (interleukin 17B) | -0.13 |
| ICA1 (islet cell autoantigen 1) | -0.66 |
| ICA1 (islet cell autoantigen 1) | -0.06 |
| ICA1 (islet cell autoantigen 1) | 0.07 |
| ICA1 (islet cell autoantigen 1) | 0.1 |
| RSRC1 (arginine and serine rich coiled-coil 1) | -1.28 |
| RSRC1 (arginine and serine rich coiled-coil 1) | -1.11 |
| RSRC1 (arginine and serine rich coiled-coil 1) | -1.24 |
| RSRC1 (arginine and serine rich coiled-coil 1) | -0.99 |
| PADI6 (peptidyl arginine deiminase 6) | 0.01 |
| PADI6 (peptidyl arginine deiminase 6) | 0.54 |
| PADI6 (peptidyl arginine deiminase 6) | 0.15 |
| PADI6 (peptidyl arginine deiminase 6) | 1.18 |
| BZW1 (basic leucine zipper and W2 domains 1) | -0.93 |
| BZW1 (basic leucine zipper and W2 domains 1) | -1.02 |
| BZW1 (basic leucine zipper and W2 domains 1) | -0.25 |
| BZW1 (basic leucine zipper and W2 domains 1) | 1.32 |
| ZNF18 (zinc finger protein 18) | 1.54 |
| ZNF18 (zinc finger protein 18) | -0.72 |
| ZNF18 (zinc finger protein 18) | 0.56 |
| ZNF18 (zinc finger protein 18) | -0.61 |
| PCM1 (pericentriolar material 1) | 0.11 |
| PCM1 (pericentriolar material 1) | 0.54 |
| PCM1 (pericentriolar material 1) | 0.35 |
| PCM1 (pericentriolar material 1) | 0.62 |
| SERPINA5 (serpin family A member 5) | -0.6 |
| SERPINA5 (serpin family A member 5) | -0.56 |
| SERPINA5 (serpin family A member 5) | -0.19 |
| SERPINA5 (serpin family A member 5) | -0.07 |
| SLFN12 (schlafen family member 12) | -1.07 |
| SLFN12 (schlafen family member 12) | -1.53 (active) |
| SLFN12 (schlafen family member 12) | -1.61 (active) |
| SLFN12 (schlafen family member 12) | -1.37 |

5 neighbouring entries from above, quoted:
| Target gene | TNF reporter robust z-score |
| --- | --- |
| ICA1 (islet cell autoantigen 1) | -0.66 |
| ICA1 (islet cell autoantigen 1) | -0.06 |
| ICA1 (islet cell autoantigen 1) | 0.07 |
| ICA1 (islet cell autoantigen 1) | 0.1 |
| RSRC1 (arginine and serine rich coiled-coil 1) | -1.28 |
